Assay results reported in PMC11543299.
Results are given in words; binding and its absence hold for the method and conditions named. In cells and extracts the contact can be indirect. Binding calls can cover weak binding; strength is not graded here. Where a sequence is shown, tags or fusion partners need not be part of it. Values belong to the binder of their own block, whether it stands above or below them.

Target: GST-JrVIP1 (Juglans regia (walnut))
Assay: pull-down; GST or GST-JrVIP1 immobilized on glutathione HiCap matrix, incubated with JrPP2A-His; western blot with anti-His antibody; performed three times

binding: binds
B1: JrPP2A09-His (protein, UniProt A0A2I4G9N5 1-476)
chain: MYSGSSDGESHEAVQRRIPPAASMPWVRNLRRFIGSGDGLGSEALMELETKRILLDIFKEKQQKSAEAGTIPSFYKKKPEEGSISHRVQRLAKYRFLKKQSDLLLNADDLDAMWFCLRENCVIDDATGAEKMNYEDFCHIASVCTEQIGPKCRRFFSPSNFMKFEKDESGRIAILPFYLYVMRTVSLTQARIDMSELDEDSDGFLQAHEMEAYIRGLIPNLAQLRDMPAAFVQMYCRIAAHKFFFFCDPHRRGKACIKKVLLSNCLQELMELHQESEEEVTDTEQAENWFSLTSAQRICDMFLALDKDMNGTLSKQELREYADGTLTEIFIERVFDEHVRRGKSGGGNAREMDFESFLDFVLALENKDTPEGLTYLFRCLDLNGRGFLTTADIHSLFRDVHQKWIDGGNYELCIEDVRDEIWDMVKPADSLRITLADLLNCKQGGTVASMVIDVRGFWAHDNRENLLQEEEEPEEE

binding: binds
B2: JrPP2A07-His (protein, UniProt A0A2I4EZA1 1-305)
chain: MSDLDRQIEQLKKCEPLKESEVKALCLKAMEILVEESNVQRVDAPVTICGDIHGQFYDMKELFKVGGDCPKTNYLFLGDFVDRGFYSVETFLLLLALKVRYPDRITLIRGNHESRQITQVYGFYDECLRKYGSVNVWRYCTDIFDYLSLSALIENKIFSVHGGLSPAISTLDQIRTIDRKQEVPHDGAMCDLLWSDPEDIMDGWGVSPRGAGYLFGGSVVTSFNHSNNIDYICRAHQLVMEGYKWMFNSQIVTVWSAPNYCYRCGNVAAILELDENLNKQFRVFDAAPQESRGTPAKKPAPDYFL
